Measurements: US11358969B2, “Indole AHR inhibitors and uses thereof” (Ikena Oncology, Inc., priority 2017, dated 2022)

By UniProt entry, the sequences of proteins in these tests, tags left out.
UniProt P35869, whole entry: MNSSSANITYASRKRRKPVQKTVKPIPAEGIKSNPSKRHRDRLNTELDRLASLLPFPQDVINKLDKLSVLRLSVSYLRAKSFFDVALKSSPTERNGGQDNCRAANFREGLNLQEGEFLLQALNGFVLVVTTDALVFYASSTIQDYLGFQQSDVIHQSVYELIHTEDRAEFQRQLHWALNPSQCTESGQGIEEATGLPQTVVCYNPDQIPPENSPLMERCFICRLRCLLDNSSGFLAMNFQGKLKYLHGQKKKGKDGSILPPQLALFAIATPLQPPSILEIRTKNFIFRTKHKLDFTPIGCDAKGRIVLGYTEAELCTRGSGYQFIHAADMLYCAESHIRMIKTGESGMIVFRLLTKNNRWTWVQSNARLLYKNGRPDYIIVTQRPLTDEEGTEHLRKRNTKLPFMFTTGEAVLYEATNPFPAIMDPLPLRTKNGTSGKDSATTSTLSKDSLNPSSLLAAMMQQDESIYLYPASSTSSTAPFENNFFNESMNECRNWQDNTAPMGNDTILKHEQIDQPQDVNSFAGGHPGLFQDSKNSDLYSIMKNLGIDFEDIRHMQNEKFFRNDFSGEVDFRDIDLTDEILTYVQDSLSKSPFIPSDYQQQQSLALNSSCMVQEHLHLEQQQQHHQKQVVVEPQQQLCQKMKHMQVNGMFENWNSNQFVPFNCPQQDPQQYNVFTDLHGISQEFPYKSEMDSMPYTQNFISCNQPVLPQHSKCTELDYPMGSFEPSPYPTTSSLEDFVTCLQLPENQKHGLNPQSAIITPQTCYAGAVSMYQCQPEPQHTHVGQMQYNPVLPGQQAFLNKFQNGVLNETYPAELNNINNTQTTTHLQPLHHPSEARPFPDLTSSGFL

How the values were obtained:
AHR = AHR (UniProt P35869); assay: DRE-Luciferase Reporter Assay (Alternate Method) (Example 1B); conditions: cell line and AHR activating ligand not specified
[1] = Mouse Pharmacokinetic Study (Example 1C); conditions: CD-1 mice, po, 30 mg/kg (so in the source); plasma
Description: Formulations of compounds set forth in Table 4 were administered intravenously or orally via gavage to CD-1 mice. Typically, at 0.167, 0.5, 1, 2, 4, 6, 12, and 24 hours post-dose, blood was collected and processed to plasma by centrifugation and stored at −80° C. until analysis.
Internal standard was added to each sample prior to protein precipitation with acetonitrile. The precipitates were filtered through a Phree phospholipid removal filter plate and the samples were analyzed by LC/MS/MS. A standard curve was prepared in plasma from typically from 1.0 ng/mL to 3000 ng/mL and processed in the same manner as the samples. Sample analysis was typically performed on a suitable LC/MS/MS system fitted with an analytical UPLC column and compounds eluted from the analytical column with a gradient from 30-95% 0.1% formic acid (v/v) in ACN: 0.1% formic acid (v/v) in water. Mass spectrometric detection of test compound and the internal standard was performed by MRM in positive mode. The pharmacokinetics of each compound were analyzed by Phoenix WinNonlin software (Pharsight, St. Louis, Mo.) via non-compartmental analysis.

| Vdss [1] [L/kg] | IC50 (AHR) [nM] | SMILES | IC50 (AHR; tested form: HCl) [nM] |
| --- | --- | --- | --- |
|  |  | Cc1[nH]c2ccc(F)cc2c1CCNc1cc(-c2cncc(F)c2)nc2c(C(C)C)cnn12 | < 500 |
| 0.8 | < 500 | OCc1cnn2c(NC[C@H](O)c3c[nH]c4ccccc34)cc(-c3cncc(F)c3)nc12 |  |

The match of structure and compound is tentative.
